Record: PubChem BioAssay AID1224831 (NIAID, 2016)
Test: 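Genes that support or restrain LPS-induced TNF-alpha reporter activity in macrophage-like cells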 (follow-up of hits). Cells: human THP-1 B5 monocytic leukaemia cells carrying a TNF promoter luciferase reporter, made macrophage-like with PMA. Knock-down reagent: single siRNA against human genes, 50 nM. Time to read-out: about 68 h of knock-down, then 4 h LPS. Treatment: LPS (Salmonella minnesota, TLR-grade) at 10 ng/ml for 4 h; PMA 5 ng/ml present during knock-down. Read-out: 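Firefly to renilla luciferase ratio of a TNF promoter reporter after 4 h LPS, scaled to plate median, turned into robust z-score, averaged over replicates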. Direction: TNF reporter z-score: higher = stronger LPS-induced TNF reporter signal; z-score, median over gene's siRNAs: higher = stronger TNF reporter signal across the gene's siRNAs. Hit rule: 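Active when the replicate mean z-score is about -1 or lower, or about 1.5 or higher; lowered and raised TNF reporter signal both count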. Meaning of the calls: active = changed TNF reporter (either direction); inactive = little change.
This is a random part of about 3,500 reagents. 731 of all reagents (21%) were called active. 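Active means either lowered or raised reporter signal; the gene-median score did not drive the per-siRNA calls.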 Unmarked entries are inactive. The numbers tell different reagents against one gene apart.

BRSK2 #1 — TNF reporter z-score, replicate mean: 1.14; z-score, median over gene's siRNAs: 0.81
BRSK2 #2 — TNF reporter z-score, replicate mean: -0.03; z-score, median over gene's siRNAs: 0.81
BRSK2 #3 — TNF reporter z-score, replicate mean: 1.43; z-score, median over gene's siRNAs: 0.81
BRSK2 #4 — TNF reporter z-score, replicate mean: -0.34; z-score, median over gene's siRNAs: 0.81
BRSK2 #5 — TNF reporter z-score, replicate mean: 0.48; z-score, median over gene's siRNAs: 0.81
BRSK2 #6 — TNF reporter z-score, replicate mean: 1.56 (active); z-score, median over gene's siRNAs: 0.81
DAPL1 #1 — TNF reporter z-score, replicate mean: -1 (active); z-score, median over gene's siRNAs: -0.17
DAPL1 #2 — TNF reporter z-score, replicate mean: -0.25; z-score, median over gene's siRNAs: -0.17
DAPL1 #3 — TNF reporter z-score, replicate mean: -0.21; z-score, median over gene's siRNAs: -0.17
DAPL1 #4 — TNF reporter z-score, replicate mean: -0.13; z-score, median over gene's siRNAs: -0.17
DAPL1 #5 — TNF reporter z-score, replicate mean: 0.68; z-score, median over gene's siRNAs: -0.17
DAPL1 #6 — TNF reporter z-score, replicate mean: 0.07; z-score, median over gene's siRNAs: -0.17
CETN3 #1 — TNF reporter z-score, replicate mean: 0.86; z-score, median over gene's siRNAs: 0.235
CETN3 #2 — TNF reporter z-score, replicate mean: 0.43; z-score, median over gene's siRNAs: 0.235
CETN3 #3 — TNF reporter z-score, replicate mean: -0.11; z-score, median over gene's siRNAs: 0.235
CETN3 #4 — TNF reporter z-score, replicate mean: 1.39; z-score, median over gene's siRNAs: 0.235
CETN3 #5 — TNF reporter z-score, replicate mean: 0.04; z-score, median over gene's siRNAs: 0.235
CETN3 #6 — TNF reporter z-score, replicate mean: -0.21; z-score, median over gene's siRNAs: 0.235
DEFA5 #1 — TNF reporter z-score, replicate mean: 1.74 (active); z-score, median over gene's siRNAs: 0.6
DEFA5 #2 — TNF reporter z-score, replicate mean: -0.78; z-score, median over gene's siRNAs: 0.6
DEFA5 #3 — TNF reporter z-score, replicate mean: 2.06 (active); z-score, median over gene's siRNAs: 0.6
DEFA5 #4 — TNF reporter z-score, replicate mean: 0.01; z-score, median over gene's siRNAs: 0.6
DEFA5 #5 — TNF reporter z-score, replicate mean: -0.98; z-score, median over gene's siRNAs: 0.6
DEFA5 #6 — TNF reporter z-score, replicate mean: 1.19; z-score, median over gene's siRNAs: 0.6
BMP7 #1 — TNF reporter z-score, replicate mean: -1.13 (active); z-score, median over gene's siRNAs: -0.375
BMP7 #2 — TNF reporter z-score, replicate mean: 0.49; z-score, median over gene's siRNAs: -0.375
BMP7 #3 — TNF reporter z-score, replicate mean: -0.03; z-score, median over gene's siRNAs: -0.375
BMP7 #4 — TNF reporter z-score, replicate mean: -0.85; z-score, median over gene's siRNAs: -0.375
BMP7 #5 — TNF reporter z-score, replicate mean: 0.06; z-score, median over gene's siRNAs: -0.375
BMP7 #6 — TNF reporter z-score, replicate mean: -0.72; z-score, median over gene's siRNAs: -0.375
HTRA2 #1 — TNF reporter z-score, replicate mean: -0.4; z-score, median over gene's siRNAs: 0.155
HTRA2 #2 — TNF reporter z-score, replicate mean: 0.25; z-score, median over gene's siRNAs: 0.155
HTRA2 #3 — TNF reporter z-score, replicate mean: 0.06; z-score, median over gene's siRNAs: 0.155
HTRA2 #4 — TNF reporter z-score, replicate mean: -0.65; z-score, median over gene's siRNAs: 0.155
HTRA2 #5 — TNF reporter z-score, replicate mean: 1.2; z-score, median over gene's siRNAs: 0.155
HTRA2 #6 — TNF reporter z-score, replicate mean: 0.57; z-score, median over gene's siRNAs: 0.155
HNRNPA2B1 #1 — TNF reporter z-score, replicate mean: 0.95; z-score, median over gene's siRNAs: 0.65
HNRNPA2B1 #2 — TNF reporter z-score, replicate mean: 1.14; z-score, median over gene's siRNAs: 0.65
HNRNPA2B1 #3 — TNF reporter z-score, replicate mean: 1.13; z-score, median over gene's siRNAs: 0.65
HNRNPA2B1 #4 — TNF reporter z-score, replicate mean: -0.43; z-score, median over gene's siRNAs: 0.65
HNRNPA2B1 #5 — TNF reporter z-score, replicate mean: 0.35; z-score, median over gene's siRNAs: 0.65
HNRNPA2B1 #6 — TNF reporter z-score, replicate mean: -0.33; z-score, median over gene's siRNAs: 0.65

Reagents listed so far marked active, once more:
BRSK2 #6 — TNF reporter z-score, replicate mean: 1.56 (active); z-score, median over gene's siRNAs: 0.81
DAPL1 #1 — TNF reporter z-score, replicate mean: -1 (active); z-score, median over gene's siRNAs: -0.17
DEFA5 #1 — TNF reporter z-score, replicate mean: 1.74 (active); z-score, median over gene's siRNAs: 0.6
DEFA5 #3 — TNF reporter z-score, replicate mean: 2.06 (active); z-score, median over gene's siRNAs: 0.6
BMP7 #1 — TNF reporter z-score, replicate mean: -1.13 (active); z-score, median over gene's siRNAs: -0.375
